Results published in article PMC8669397.
Construct, isoform or probe ends are uncertain for at least one entry. A weaker result is weaker than the reference pair of the same experiment. At least one verdict rests on a figure or table, not on a statement of the authors.

Target: MatP (Photorhabdus thracensis) (UniProt A0A0F7LUV5)
Assay: EMSA
Conditions: EMSA: 2 nM DNA, 20 mM HEPES, 30 mM NaCl, 1 mM TCEP, pH 7.3, 5 min at RT, 6% gel in 0.5x TBE at 4 C; recombinant protein; label: 5' 6-FAM on strand 1

Row | Sequence | binding result
1 | CACTGTGACATTGTCACGGCA (double strand) [matS1 21 bp] | binds more weakly
2 | CACTGTTACAGTGTAACGGCA (double strand) [matS2 21 bp] | binds
